These results are taken from publication doi:10.1101/2024.01.15.575768.

The assay deals with FLAG-FTO (human) (UniProt Q9C0B1). The assay can be described thus: co-IP.

These are yes or no findings as the source states them, for the method shown. In cells and extracts the contact can be indirect. Some results given as binding are weak or reduced against the parent protein; the word gives no strength.

B1: endogenous ZBTB48 (protein, UniProt P10074 1-688)
chain: MDGSFVQHSVRVLQELNKQREKGQYCDATLDVGGLVFKAHWSVLACCSHFFQSLYGDGSGGSVVLPAGFAEIFGLLLDFFYTGHLALTSGNRDQVLLAARELRVPEAVELCQSFKPKTSVGQAAGGQSGLGPPASQNVNSHVKEPAGLEEEEVSRTLGLVPRDQEPRGSHSPQRPQLHSPAQSEGPSSLCGKLKQALKPCPLEDKKPEDCKVPPRPLEAEGAQLQGGSNEWEVVVQVEDDGDGDYMSEPEAVLTRRKSNVIRKPCAAEPALSAGSLAAEPAENRKGTAVPVECPTCHKKFLSKYYLKVHNRKHTGEKPFECPKCGKCYFRKENLLEHEARNCMNRSEQVFTCSVCQETFRRRMELRVHMVSHTGEMPYKCSSCSQQFMQKKDLQSHMIKLHGAPKPHACPTCAKCFLSRTELQLHEAFKHRGEKLFVCEECGHRASSRNGLQMHIKAKHRNERPHVCEFCSHAFTQKANLNMHLRTHTGEKPFQCHLCGKTFRTQASLDKHNRTHTGERPFSCEFCEQRFTEKGPLLRHVASRHQEGRPHFCQICGKTFKAVEQLRVHVRRHKGVRKFECTECGYKFTRQAHLRRHMEIHDRVENYNPRQRKLRNLIIEDEKMVVVALQPPAELEVGSAEVIVESLAQGGLASQLPGQRLCAEESFTGPGVLEPSLIITAAVPEDCDT
Take B1: the binding entry is recorded as “binds”.
